Laboratory results: the supplement of paper PMC6078165

Test system: MDAMB468
Test: relative JC-1 red fluorescence (viability) vs pre-drug, coculture with fibroblast (fraction); higher = more viable cancer cells
Method: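 JC-1 labelled TNBC cells cocultured 1:1 (1,500 cells each) with CellTrace Violet stained primary or stromal fibroblasts in 384-well plates in FluoroBrite medium, treated with one of 42 anticancer drugs at 0.1, 1, 10 or 100 uM. JC-1 red fluorescence (mitochondrial integrity in cancer cells only) was read by plate reader every 8 h for 72 h. Values are normalised to each well's pre-drug value. The stock of one drug was tenfold lower, so its dose labels may be too high.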

CC(C)C[C@H](NC(=O)[C@H](Cc1ccccc1)NC(=O)c1cnccn1)B(O)O [Bortezomib]
relative JC-1 red fluorescence
Settings | 8 h | 16 h | 24 h | 32 h | 40 h | 48 h | 56 h | 64 h | 72 h
10 µM, coculture fibroblast: C12385 | 0.7861 ± 0.0056 | 0.6352 ± 0.0061 | 0.546 ± 0.045 | 0.487 ± 0.086 | 0.446 ± 0.093 | 0.445 ± 0.096 | 0.409 ± 0.091 | 0.396 ± 0.089 | 0.391 ± 0.086
10 µM, coculture fibroblast: H6013 | 0.8102 ± 0.0037 | 0.732 ± 0.013 | 0.672 ± 0.011 | 0.618 ± 0.023 | 0.619 ± 0.026 | 0.63 ± 0.026 | 0.604 ± 0.027 | 0.603 ± 0.031 | 0.541 ± 0.032
10 µM, coculture fibroblast: H6019 | 0.728 ± 0.018 | 0.651 ± 0.049 | 0.659 ± 0.053 | 0.672 ± 0.04 | 0.679 ± 0.044 | 0.713 ± 0.049 | 0.698 ± 0.048 | 0.703 ± 0.05 | 0.709 ± 0.047
10 µM, coculture fibroblast: H6076 | 0.8501 ± 0.0026 | 0.8149 ± 0.00035 | 0.688 ± 0.024 | 0.681 ± 0.046 | 0.607 ± 0.033 | 0.606 ± 0.046 | 0.588 ± 0.042 | 0.586 ± 0.04 | 0.64 ± 0.042
10 µM, coculture fibroblast: H6231 | 0.8362 ± 0.0025 | 0.85 ± 0.036 | 0.72 ± 0.042 | 0.682 ± 0.013 | 0.552 ± 0.035 | 0.522 ± 0.024 | 0.488 ± 0.02 | 0.461 ± 0.017 | 0.479 ± 0.015
10 µM, coculture fibroblast: HADF | 0.8022 ± 0.0029 | 0.682 ± 0.025 | 0.561 ± 0.03 | 0.479 ± 0.016 | 0.433 ± 0.024 | 0.427 ± 0.022 | 0.393 ± 0.021 | 0.381 ± 0.017 | 0.319 ± 0.012
10 µM, coculture fibroblast: HCFa | 0.771 ± 0.01 | 0.65 ± 0.039 | 0.56 ± 0.059 | 0.5 ± 0.053 | 0.476 ± 0.062 | 0.477 ± 0.065 | 0.446 ± 0.058 | 0.427 ± 0.061 | 0.379 ± 0.053
10 µM, coculture fibroblast: HCPF | 0.79 ± 0.0012 | 0.8182 ± 0.0043 | 0.723 ± 0.056 | 0.711 ± 0.081 | 0.595 ± 0.08 | 0.565 ± 0.081 | 0.514 ± 0.079 | 0.491 ± 0.087 | 0.495 ± 0.087
10 µM, coculture fibroblast: HHSteC | 0.795 ± 0.029 | 0.663 ± 0.045 | 0.566 ± 0.026 | 0.482 ± 0.026 | 0.453 ± 0.042 | 0.457 ± 0.047 | 0.411 ± 0.042 | 0.387 ± 0.042 | 0.339 ± 0.046
10 µM, coculture fibroblast: HMF | 0.765 ± 0.025 | 0.804 ± 0.014 | 0.678 ± 0.053 | 0.674 ± 0.075 | 0.577 ± 0.087 | 0.566 ± 0.088 | 0.541 ± 0.083 | 0.541 ± 0.094 | 0.55 ± 0.097
10 µM, coculture fibroblast: HPFa | 0.888 ± 0.014 | 0.77 ± 0.04 | 0.705 ± 0.099 | 0.629 ± 0.13 | 0.617 ± 0.14 | 0.614 ± 0.14 | 0.566 ± 0.13 | 0.553 ± 0.13 | 0.488 ± 0.12
10 µM, coculture fibroblast: HUF | 0.824 ± 0.0037 | 0.677 ± 0.019 | 0.552 ± 0.0061 | 0.48 ± 0.0071 | 0.442 ± 0.011 | 0.444 ± 0.0094 | 0.413 ± 0.0094 | 0.41 ± 0.012 | 0.403 ± 0.012
10 µM, coculture fibroblast: Hs5 | 0.914 ± 0.025 | 0.805 ± 0.051 | 0.746 ± 0.013 | 0.7249 ± 0.0046 | 0.639 ± 0.0079 | 0.6073 ± 0.0038 | 0.5793 ± 0.0044 | 0.5499 ± 0.0035 | 0.58668 ± 0.00022
10 µM, coculture fibroblast: Hs27A | 0.828 ± 0.016 | 0.761 ± 0.014 | 0.702 ± 0.021 | 0.657 ± 0.05 | 0.615 ± 0.054 | 0.608 ± 0.062 | 0.572 ± 0.064 | 0.553 ± 0.061 | 0.468 ± 0.053
10 µM, coculture fibroblast: Hs343T | 0.809 ± 0.05 | 0.812 ± 0.051 | 0.683 ± 0.086 | 0.681 ± 0.11 | 0.599 ± 0.1 | 0.584 ± 0.11 | 0.546 ± 0.11 | 0.547 ± 0.1 | 0.544 ± 0.098
10 µM, coculture fibroblast: WS1 | 0.776 ± 0.036 | 0.646 ± 0.031 | 0.559 ± 0.033 | 0.503 ± 0.036 | 0.455 ± 0.042 | 0.442 ± 0.043 | 0.417 ± 0.039 | 0.405 ± 0.043 | 0.401 ± 0.045
100 µM, coculture fibroblast: C12385 | 0.8402 ± 0.0084 | 0.716 ± 0.014 | 0.538 ± 0.033 | 0.452 ± 0.0067 | 0.3985 ± 0.0011 | 0.3874 ± 0.002 | 0.3442 ± 0.0012 | 0.3223 ± 0.0022 | 0.3119 ± 0.0017
100 µM, coculture fibroblast: H6013 | 0.884 ± 0.012 | 0.799 ± 0.013 | 0.752 ± 0.024 | 0.686 ± 0.029 | 0.683 ± 0.029 | 0.678 ± 0.027 | 0.647 ± 0.02 | 0.632 ± 0.021 | 0.561 ± 0.022
100 µM, coculture fibroblast: H6019 | 0.7956 ± 0.00093 | 0.629 ± 0.033 | 0.604 ± 0.015 | 0.583 ± 0.013 | 0.572 ± 0.014 | 0.58 ± 0.013 | 0.5567 ± 0.00075 | 0.5618 ± 0.00084 | 0.5631 ± 0.00091
100 µM, coculture fibroblast: H6076 | 0.9182 ± 0.0072 | 0.879 ± 0.048 | 0.838 ± 0.16 | 0.825 ± 0.12 | 0.823 ± 0.22 | 0.702 ± 0.043 | 0.82 ± 0.25 | 0.811 ± 0.26 | 0.745 ± 0.062
100 µM, coculture fibroblast: H6231 | 0.814 ± 0.0094 | 0.89 ± 0.034 | 0.779 ± 0.016 | 0.773 ± 0.15 | 0.663 ± 0.17 | 0.63 ± 0.19 | 0.572 ± 0.18 | 0.549 ± 0.19 | 0.558 ± 0.2
100 µM, coculture fibroblast: HADF | 0.864 ± 0.029 | 0.745 ± 0.022 | 0.686 ± 0.03 | 0.63 ± 0.038 | 0.596 ± 0.05 | 0.575 ± 0.039 | 0.526 ± 0.043 | 0.505 ± 0.042 | 0.431 ± 0.05
100 µM, coculture fibroblast: HCFa | 0.867 ± 0.03 | 0.727 ± 0.055 | 0.668 ± 0.059 | 0.645 ± 0.074 | 0.643 ± 0.08 | 0.644 ± 0.097 | 0.597 ± 0.11 | 0.568 ± 0.11 | 0.505 ± 0.11
100 µM, coculture fibroblast: HCPF | 0.8559 ± 0.0063 | 0.8699 ± 0.0011 | 0.748 ± 0.0075 | 0.752 ± 0.045 | 0.666 ± 0.046 | 0.624 ± 0.042 | 0.578 ± 0.047 | 0.566 ± 0.042 | 0.573 ± 0.041
100 µM, coculture fibroblast: HHSteC | 0.884 ± 0.016 | 0.769 ± 0.01 | 0.719 ± 0.045 | 0.666 ± 0.043 | 0.626 ± 0.061 | 0.638 ± 0.065 | 0.561 ± 0.055 | 0.537 ± 0.054 | 0.473 ± 0.052
100 µM, coculture fibroblast: HMF | 0.811 ± 0.03 | 0.8399 ± 0.0047 | 0.7321 ± 0.0051 | 0.693 ± 0.027 | 0.588 ± 0.03 | 0.558 ± 0.035 | 0.534 ± 0.039 | 0.525 ± 0.048 | 0.538 ± 0.052
100 µM, coculture fibroblast: HPFa | 0.9161 ± 0.0056 | 0.849 ± 0.015 | 0.8425 ± 0.00085 | 0.7487 ± 0.0037 | 0.722 ± 0.019 | 0.727 ± 0.015 | 0.659 ± 0.017 | 0.65 ± 0.019 | 0.57 ± 0.015
100 µM, coculture fibroblast: HUF | 0.908 ± 0.017 | 0.747 ± 0.012 | 0.6642 ± 0.0037 | 0.604 ± 0.017 | 0.552 ± 0.025 | 0.539 ± 0.023 | 0.5 ± 0.026 | 0.489 ± 0.026 | 0.478 ± 0.028
100 µM, coculture fibroblast: Hs5 | 0.817 ± 0.056 | 0.906 ± 0.064 | 0.779 ± 0.11 | 0.739 ± 0.12 | 0.643 ± 0.12 | 0.604 ± 0.11 | 0.574 ± 0.11 | 0.54 ± 0.11 | 0.58 ± 0.12
100 µM, coculture fibroblast: Hs27A | 0.8184 ± 0.0073 | 0.73634 ± 0.00069 | 0.661 ± 0.028 | 0.603 ± 0.026 | 0.543 ± 0.021 | 0.519 ± 0.018 | 0.479 ± 0.018 | 0.454 ± 0.018 | 0.383 ± 0.019
100 µM, coculture fibroblast: Hs343T | 0.822 ± 0.026 | 0.886 ± 0.042 | 0.794 ± 0.16 | 0.779 ± 0.21 | 0.648 ± 0.19 | 0.638 ± 0.19 | 0.606 ± 0.19 | 0.595 ± 0.18 | 0.607 ± 0.18
100 µM, coculture fibroblast: WS1 | 0.842 ± 0.013 | 0.635 ± 0.017 | 0.53 ± 0.012 | 0.435 ± 0.037 | 0.374 ± 0.029 | 0.351 ± 0.025 | 0.32 ± 0.025 | 0.303 ± 0.021 | 0.296 ± 0.02

± gives the standard deviation of the averaged measurements. The reference is the same well before dosing, and untreated signal decays as well.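 Fibroblast labels denote human fibroblasts, mainly primary ones from uterus (C12385, HUF), lung (H6013), bone (Hs27A), adrenal (HADF) and skin (WS1), plus mammary HMF and breast cancer-associated Hs343T. Cancer cells are basal-like or mesenchymal-like triple-negative breast cancer lines. A hit is a response shift exceeding 3x replicate standard deviation. The tissue of the other fibroblasts is not given here.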
